This note sets out measurements from PubChem BioAssay AID1487 (National Center for Advancing Translational Sciences (NCATS), 2009).

What is called AC50 is the concentration at which the activity in the assay is half-maximal.

The list shows a part of the results. The main result of the screen is listed elsewhere. These columns were measured beside it and carry no call. The list favours compounds with an active or inconclusive main result. The note in brackets gives the kind of curve behind each potency; many fits are weak.

The assay can be described thus: qHTS Assay for Modulators of Lamin A Splicing. Particulars: HeLa LMNA splicing GFP/RFP minigene ratio, 48 h. In outline:
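Read-out is the ratio of GFP to DsRed2 object intensity, acquired by 488 nm laser-scanning cytometry on HeLa lamin A-EGFP minigene reporter cells. Compound incubation 48 hrs at 37 °C in Opti-MEM with 2% FBS; DMSO 0.5% final.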

Setting [1] is: measured here: RFP viability control channel.
Setting [2] is: measured here: GFP splicing reporter channel.

On to `Cc1ccc2nc(NC(=O)Cn3nc(C)c([N+](=O)[O-])c3C)sc2c1`, for which the AC50 under setting [1] was 0.0891 µM [rising, full curve, poor fit].
Regarding `O=C(c1ccc(-c2cc(Cl)ccc2Cl)o1)N1CCOCC1`, the AC50 was 0.0708 µM [falling, full curve, poor fit] under setting [2] and 0.0794 µM [falling, full curve, poor fit] under setting [1].
Take `CC(C(=O)Nc1ccccc1C(=O)O)n1c(C(F)(F)F)nc2ccccc21` (stereo not given): the AC50 under setting [1] was 14.1 µM [rising, single point].
For `Cc1ccc(C(=O)Nc2nnc(S(=O)(=O)N3CCc4ccccc43)s2)cc1`, under setting [1], the AC50 was 0.112 µM [falling, full curve, poor fit].
On to `CSc1nc2ccccc2cc1/C=C(\C#N)c1cccc(C)c1`, for which the AC50 is, setting by setting: under setting [2], 25.1 µM [falling, single point]; under setting [1], 20 µM [falling, single point].
With `CC1CCCCN1S(=O)(=O)c1ccc2c(c1)oc(=O)n2CC(=O)O` (stereo not given), the AC50 was 0.794 µM [falling, full curve, poor fit] under setting [2] and 0.794 µM [falling, full curve, poor fit] under setting [1].
As for `CC1C/C(=C/c2cccn2C)C(=O)/C(=C/c2cccn2C)C1` (stereo not given), the AC50 under setting [1] is 35.5 µM [falling, single point].
As to `CC(=O)NCCn1c(SCC(=O)Nc2ccc(C)cc2)nc2ccccc2c1=O`, the half-maximal activity concentration (AC50) under setting [2] is 4.47 µM [rising, full curve, poor fit].
Regarding `CC(Sc1nc(N)c2c3c(sc2n1)CSC(C)(C)C3)C(=O)Nc1ccccc1` (stereo not given), the concentration at half-maximal activity (AC50) under setting [1] is 12.6 µM [rising, partial curve, poor fit].
On the same count and under the same terms, the value for `CCCCOc1cccc(C(=O)N(Cc2cccs2)c2ccc(OC)cc2)c1` was 11.2 µM [rising, single point]; that for `O=C(c1ccc([N+](=O)[O-])cc1)N1CCSC1c1ccccc1Cl` (stereo not given) was 12.6 µM [falling, partial curve].
With `Cc1ccccc1CN1C(=O)c2ccccc2Sc2ccc(C(=O)NC3CCCC3)cc21`, the AC50 under setting [2] is 0.02 µM [falling, full curve].
The same measure, in the same setting: the value for `Cc1ccc(Cl)cc1-n1ncc2c(N3CCCCCC3)ncnc21` was 31.6 µM [falling, partial curve, poor fit].
For the compound `CCCN1CCN(c2ccc([N+](=O)[O-])cc2C#N)CC1`, the half-maximal activity concentration (AC50) under setting [1] was 0.0501 µM [rising, full curve, poor fit].
Same read-out and setting: for `COc1ccc(-n2c(C)cc(C(=O)Cn3nc(C(=O)O)c4ccccc4c3=O)c2C)cc1` the value was 35.5 µM [rising, single point].
As to `CC(C)COC[C@H](CN(Cc1ccccc1)c1ccccc1)N1CCCC1`, the AC50 is, setting by setting: under setting [2], 0.00631 µM [falling, full curve, poor fit]; under setting [1], 0.00708 µM [falling, partial curve, poor fit].
Take `COc1ccc(-n2nnnc2SCC(=O)c2cc3ccccc3o2)cc1`: the AC50 under setting [1] was 35.5 µM [rising, single point].
On the same count and under the same terms, the value for `COc1ccc(/C(N)=N/OC(=O)c2cccs2)cc1OC` was 0.01 µM [falling, full curve, poor fit].
Take `O=C(OCc1nnc(-c2ccccc2)o1)C12CC3CC(CC(Br)(C3)C1)C2`: under setting [1], the AC50 was 0.794 µM [falling, full curve, poor fit].
`COc1ccc([C@@H]2CNC(=O)C2)cc1OC1CCCC1`: the half-maximal activity concentration (AC50) is 3.16 µM [falling, single point] under setting [2] and 0.002 µM [falling, full curve, poor fit] under setting [1].
In the case of `CCOc1ccc(CCNC(=O)c2ccc(-n3c(C)cc4c3CCC(C)C4)cc2)cc1OCC` (stereo not given), the AC50 was 35.5 µM [falling, single point] under setting [2] and 35.5 µM [falling, single point] under setting [1].
As for `CC1=C(C(=O)Nc2ccc(C)cc2Cl)C2(CCCCCC2)OC1=O`, the AC50 under setting [2] was 25.1 µM [rising, partial curve].
Consider `Cc1ccc(C)c2sc(N3CCN(C(=O)C(C)(C)C)CC3)nc12`, for which the half-maximal activity concentration (AC50) under setting [2] is 0.00447 µM [falling, full curve, poor fit].
The same measure, in the same setting: for `COc1cc(C(=O)Nc2ccc(C(C)=O)cc2)c(Br)c(OC)c1OC` the value was 35.5 µM [rising, single point].
As for `CCCCC(CC)CNC(=O)CN(C)S(=O)(=O)c1cccc2nsnc12` (stereo not given), the AC50 under setting [2] is 17.8 µM [rising, partial curve, poor fit] and the AC50 under setting [1] is 25.1 µM [rising, single point].
For the compound `O=C(/C=C/c1ccc(O)cc1)c1ccc(NC2=C(N3CCCCC3)C(=O)c3ccccc3C2=O)cc1`, the AC50 was 12.6 µM [rising, partial curve] under setting [2] and 11.2 µM [rising, partial curve] under setting [1].
`CCN(CCCNC(=O)c1[nH]c(C)c(C(C)=O)c1C)c1ccccc1`: the half-maximal activity concentration (AC50) under setting [1] is 15.8 µM [rising, single point].
With `CCOC(=O)c1[nH]c2ccc(Br)cc2c1NC(=O)CCN1CCCCC1`, under setting [1], the concentration at half-maximal activity (AC50) was 12.6 µM [rising, single point].
Still for that read-out and setting: for `CC(=O)OCC1OC(OC(C)=O)C(NC(=O)Cc2ccccc2)C(OC(C)=O)C1OC(C)=O` (stereo not given) the value was 14.1 µM [rising, partial curve].
Turning to `C/C(=N\OCC(=O)Nc1nc2ccccc2s1)c1ccccc1`, the AC50 is 4.47 µM [rising, single point] under setting [2] and 3.55 µM [rising, single point] under setting [1].
On to `O=C(Nc1ccc(OC(F)F)c(Cl)c1)C(c1ccccc1)c1ccccc1`, for which, under setting [1], the AC50 is 17.8 µM [rising, single point].
On the same count and under the same terms, the value for `COc1cccc(C(c2nnnn2CCc2ccccc2)N2CCN(c3ccccc3)CC2)c1OC` (stereo not given) was 20 µM [rising, partial curve, poor fit]; that for `COc1cc(NC(=O)Cn2nc(-c3ccc(F)cc3)ccc2=O)ccc1-n1cnnn1` was 35.5 µM [rising, single point].
With `Cc1ccc(NC(=O)c2c(NC(=O)CCC(=O)O)sc3c2CCCCC3)cc1`, the AC50 under setting [2] is 28.2 µM [falling, single point].
`COc1cccc(NC(=O)C(=O)NCc2ccncc2)c1`: the AC50 under setting [1] is 0.00447 µM [rising, full curve, poor fit].
On the same count and under the same terms, for `COc1ccc(-n2c(COc3cccc4ccccc34)nnc2SCC(=O)NCc2ccco2)cc1` the value was 35.5 µM [rising, single point].
